{"source": "PubChem BioAssay AID1479146", "about": "(National Center for Advancing Translational Sciences (NCATS), 2020)", "note": "This list was built around the results that the source calls inconclusive (neither active nor inactive); the mix of calls is not that of the screen. Where the call is inconclusive, the potency comes from a doubtful curve fit. Active and inactive are the calls of the source. Calls follow the shape of the full dose curve."}
{"experiment": "Confirmatory qHTS for Huh7 cytotoxicity: counterscreen for inhibitors of MERS-S pseudo-typed particle cell entry", "conditions": "viability; activity change, negative = cytotoxicity: at 57.1 µM (top of the series)"}
{"smiles": "COc1cc2c(cc1Cc1cccc(Cl)c1F)c(=O)c(C(=O)O)cn2[C@H](CO)C(C)C", "Potency": "inconclusive: 42.9 µM [cytotoxic, single point]"}
{"smiles": "CCC(C)(C)C(=O)O[C@H]1C[C@@H](C)C=C2C=C[C@H](C)[C@H](CC[C@@H]3C[C@@H](O)CC(=O)O3)[C@H]21", "activity change, negative = cytotoxicity": "inactive: 0%"}
{"smiles": "C=CC(=O)Nc1cc(Nc2nccc(-c3cn(C)c4ccccc34)n2)c(OC)cc1N(C)CCN(C)C", "Potency": "active: 10.8 µM"}
{"smiles": "Cc1nn(C)c2c1C(c1ccccc1F)=NCC(=O)N2C", "Potency": "inconclusive: 38.3 µM [cytotoxic, partial curve, poor fit]"}
{"smiles": "CC(C)(C)c1ccc(C(=O)CCCN2CCC(OC(c3ccccc3)c3ccccc3)CC2)cc1", "Potency": "inconclusive: 13.6 µM [cytotoxic, full curve]"}
{"smiles": "C[C@@H]1CCO[C@H]2Cn3cc(C(=O)NCc4ccc(F)cc4F)c(=O)c(O)c3C(=O)N12", "activity change, negative = cytotoxicity": "inconclusive: -41.9% [cytotoxic]"}
{"smiles": "CCCN1C[C@H](C)[C@@H](O)[C@](C)(O)[C@@H](CC)OC(=O)[C@H](C)[C@@H](O[C@H]2C[C@@](C)(OC)[C@@H](O)[C@H](C)O2)C(C)[C@@H](O[C@@H]2O[C@H](C)C[C@H](N(C)C)[C@H]2O)[C@](C)(O)C[C@H]1C", "note": "(some centres undefined)", "activity change, negative = cytotoxicity": "inactive: -7.32%"}
{"smiles": "CC(C)(C)C(=O)OCOP(=O)(COCCn1cnc2c(N)ncnc21)OCOC(=O)C(C)(C)C", "Potency": "inconclusive: 19.2 µM [cytotoxic, partial curve]"}
{"smiles": "O=C(Nc1ccc([N+](=O)[O-])cc1Cl)c1cc(Cl)ccc1O", "Potency": "active: 3.83 µM"}
